Source: PubChem BioAssay AID1794845 (National Center for Advancing Translational Sciences (NCATS), 2023)
Fewer than 10 of roughly 6,900 compounds were called active. Calls come from the whole dose curve; as a rule, active = well fitted curve in the direction sought with a large enough effect; inconclusive = small, poorly fitted or top-dose-only effect, or another doubt; inactive = no such curve, though single readings can be large or run the other way. This is one part of the list.

Chains of the proteins cited; added tags and fusions are not shown. Lines headed by an entry give the natural chain unless they say otherwise; changes in a name come on top.
UniProt C7C422: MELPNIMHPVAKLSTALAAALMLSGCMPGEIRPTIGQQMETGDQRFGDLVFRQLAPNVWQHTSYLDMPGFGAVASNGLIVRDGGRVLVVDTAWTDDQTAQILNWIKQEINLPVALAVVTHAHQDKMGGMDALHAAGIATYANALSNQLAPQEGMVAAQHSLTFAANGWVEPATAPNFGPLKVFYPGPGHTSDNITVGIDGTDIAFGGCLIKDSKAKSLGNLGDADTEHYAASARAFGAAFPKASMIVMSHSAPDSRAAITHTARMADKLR

What follows are molecules tested against Metallo-beta-lactamase type 2 (Klebsiella pneumoniae) (UniProt C7C422) (assay: qHTS to identify inhibitors of the New Delhi Metallo-beta-lactamase (NDM): primary screen against the NCATS Gemini Collection). Settings: NDM-1 enzyme, meropenem hydrolysis, absorbance 300 nm; at 38.4 µM (top of the series) unless noted.
Outline: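 NDM-1 at 2 nM final in 50 mM HEPES pH 7.0, 1 uM ZnSO4, 0.01% Tween20, preincubated >30 min with compound. Meropenem 50 uM final added; absorbance at 300 nm after 30 min.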
Note: % of control where 0% means no effect.

Row | Structure (SMILES) | activity % (negative = inhibition)
1 | COc1ccc(CC(=O)N[C@H]2[C@H](O)[C@H](O)C[C@@H]2c2cccnc2)cc1 | inactive: -3.76% [at 57.5 µM]
2 | O=C1NC(=NC2CCCC2)C2(CCN(Cc3cccnc3)CC2)N1c1cc(F)cc(F)c1 | inactive: -2.39%
3 | Cc1cc2ncc(C(=O)N3CCOCC3)cn2n1 | inactive: 3.02% [at 57.5 µM]
4 | Cc1cc(C#N)c(-c2ccccc2C(=O)N(C(C)C)C(C)C)nc1C | inactive: 7.78%
5 | CCCN(C)c1nccnc1OC1CCN(C(=O)c2cccc(OC)c2OC)C1 (stereo unspecified) | inactive: 4.18%
6 | Clc1cc(NCc2ccccn2)n2nccc2n1 | inactive: 8.98% [at 57.5 µM]
7 | O=C1N[C@H](CC(=O)N2CCc3ccccc3C2)C(=O)Nc2ccccc21 | inactive: 0.372%
8 | O=C(NCc1ccccc1)[C@@H]1Cc2nc[nH]c2CN1Cc1cccc(OC(F)(F)F)c1 | inactive: 28.9% [at 57.5 µM]
9 | COCCN1C(=O)CC[C@]2(C(=O)N3CCCCCC3)CCCC[C@@H]12 | inactive: 4.02%
10 | COc1ccc2c(c1)OCC(CNC(=O)c1scc3c1OCCO3)C2 (stereo unspecified) | inactive: 0.535%
11 | CNC(=O)[C@@H]1CN(S(=O)(=O)c2cccnc2)C[C@H]1C1CCN(C)CC1 | inactive: -6.18%
12 | CNC(=O)c1cc(C2CC2)nc2onc(C3CCN(C(=O)C4CCCCC4)CC3)c12 | inactive: 7.44%
13 | CCCC(C)N1CC2(CCN(C(=O)c3ccc(C(C)=O)s3)CC2)OC1=O (stereo unspecified) | inactive: 6.11%
14 | Cc1ccc(CN2CCN(c3ncnc4onc(C)c34)CC2CCO)cc1 (stereo unspecified) | inactive: 8.04%
15 | Cc1cc(C)cc(-c2ccc(CN3CCCC(N[S+](C)(=O)[O-])C3)cc2)c1 (stereo unspecified) | inactive: -7.62%
16 | O[C@@H]1C[C@@H](c2nc(Cc3ccc(F)cc3Cl)no2)N(Cc2ccc(OC(F)(F)F)cc2)C1 | inactive: 10.6%
17 | CCCn1cnc2c1CN(C(=O)c1ccc(F)cc1)[C@H](C(=O)OC)C2 | inactive: 1.92% [at 57.5 µM]
18 | CCC(=O)N1CCc2ccc(C(=O)NC3CCCCC3)cc21 | inactive: -3.89%
19 | CC(=O)N1CCN(C(=O)c2nc(N)nc3c2CCCC3)CC(O)C1 (stereo unspecified) | inactive: 36%
20 | Cc1cccc(O[C@H]2COCCN(c3nc4ccccc4s3)C2)n1 | inactive: -0.272% [at 57.5 µM]
21 | O=C(O)CCc1nc(C2CCOCC2)n[nH]1 | inactive: -8.02%
22 | Cc1cnccc1NCCn1ccnc1-c1cc2n(n1)CCCNC2 | inactive: 5.67%

Row | Structure (SMILES) | activity % (negative = inhibition)
23 | O[C@H]1[C@H](NCc2ccc(F)cc2)[C@H]2CO[C@H](O2)[C@@H]1N1CCC(Cc2ccccc2)CC1 | inactive: -1.32% [at 57.5 µM]
24 | O=C(NCc1ccnc2[nH]ccc12)c1cc(F)ccc1Br | inactive: 5.26%
25 | CC(C)c1nc2c(c(-c3ccc(O)cc3)n1)CCN(C(=O)C1CCCC1)CC2 | inactive: 3.06%
26 | Cc1ncc(CN2CCCC2C(=O)Nc2ccc(-c3cccc(F)c3)cc2)[nH]1 (stereo unspecified) | inactive: 5.35%
27 | NCCC(=O)N1CCC2(CC1)CN(C(=O)c1ccc(Cl)cc1)CCO2 | inactive: 3.42%
28 | O=C1NC(=NC2CCCCC2)C2(CCN(CC3CCCCC3)C2)N1c1cccnc1 (stereo unspecified) | inactive: 6.7%
29 | CC(C)CN1C(=O)CCc2cc(NC(=O)C3CCC3)ccc21 | inactive: 2.56%
30 | O=C(N[C@@H]1CN(C(=O)c2ccccn2)CC[C@@H]1CO)C1CC1 | inactive: 4.03%
31 | COc1ccc(OC)c(CNC(=O)C2(CCO)CC23CCOCC3)c1 (stereo unspecified) | inactive: -0.329%
32 | COc1cccc(-c2ccccc2NC(=O)C2CCN(Cc3ccccc3F)CC2)c1 | inactive: -2.34%
33 | CN(C)c1cccc(-c2cnc(Nc3ccc(N4CCOCC4)cc3)c3c2CCO3)c1 | inactive: 18.7% [at 57.5 µM]
34 | COc1ccc(CC(=O)N(C)C2CCc3ccccc3C2)cc1 (stereo unspecified) | inactive: 5.6% [at 57.5 µM]
35 | COc1ccc(-c2nc(C3CC3)nc3c2CCN(CCC(C)C)CC3)cc1 | inactive: 49.5%
36 | CC(C)OC(=O)N1CCC(COc2ccc3c(cnn3CCC(=O)O)c2)CC1 | inactive: 5.9% [at 57.5 µM]
37 | CCc1nc2c(NC(=O)c3ccc(F)c(Cl)c3)cccn2n1 | inactive: 8.21%
38 | CN1CCCN(CC(=O)N2CCCC(c3ccc(C(=O)O)cc3)C2)CC1 (stereo unspecified) | inactive: -0.8%
39 | O=C1NC2(CCN(Cc3ccccc3)C2)Oc2ccccc21 (stereo unspecified) | inactive: 6.56% [at 57.5 µM]
40 | CN(CCc1ccccc1)[C@@H]1[C@H](O)[C@H](CO)O[C@@H]1CNS(=O)(=O)c1cccs1 | inactive: 14.1%
41 | O[C@H]1[C@H](NCc2cnc3ccccc3c2)[C@H]2CO[C@H](O2)[C@@H]1N1CCCCC1 | inactive: 0.493% [at 57.5 µM]
42 | O=C(CCc1cc2n(n1)CCCNC2)Nc1ccc2c(c1)OCCO2 | inactive: 63.7%
43 | Cc1cnn(CCC(=O)NC2CCc3nnc(C)n3CC2)c1 (stereo unspecified) | inactive: 35.5%
44 | O=C(c1cccnc1)N1CCC2(CC1)C(=O)NN=C2c1cccnc1 | inactive: 8.82%

Row | Structure (SMILES) | activity % (negative = inhibition)
45 | Cc1nc(CN2CCN(c3cc(C4CC(O)C4)ncn3)CC2)cs1 (stereo unspecified) | inactive: 4.21%
46 | O=C1COCC2(CN(CCC(F)(F)F)C2)CN1Cc1cccc(OC(F)(F)F)c1 | inactive: 1.33% [at 57.5 µM]
47 | Fc1ccc2nc(CO[C@H]3CN(C4CCC4)C[C@H]3F)[nH]c2c1 | inactive: 15.9% [at 57.5 µM]
48 | O=C(NCC1CC1)C1CCCN(C2CCN(Cc3ccncc3)CC2)C1 (stereo unspecified) | inactive: 3%
49 | O=C(Cc1ccc(F)c(F)c1F)N[C@@H]1CCNC[C@H]1O | inactive: -3.13%
50 | CC(C)NC(=O)C1COC2(CCCCC2)N1C(=O)Cc1ccccc1 (stereo unspecified) | inactive: 3.61%
51 | Cc1cc(C(=O)N2C[C@@H](COCC3CC3)[C@H](c3ccccn3)C2)n[nH]1 | inactive: -0.139%
52 | Cc1nc(-c2ccc(F)cc2)n(Cc2ccc(F)c(F)c2)c(=O)c1CCO | inactive: -2.72%
53 | O=C(c1ccccc1)N1CCC2(CC1)C(=O)NN=C2c1ccccn1 | inactive: 7.88% [at 57.5 µM]
54 | Cc1ccn(CC(=O)N2CCCn3ccnc3C2c2cnn(C)c2)n1 (stereo unspecified) | inactive: 1.14%
55 | Cc1cccc(C(=O)N2CCC(c3noc(CO)n3)C2)c1 (stereo unspecified) | inactive: 10.2%
56 | Cc1cnn(-c2cc(N3CCC(n4cc(C5CCCC5)nn4)CC3)ncn2)c1 | inactive: 4.64%
57 | O=C1Nc2ccccc2C2(CCN(C(=O)c3cccnc3)C2)O1 (stereo unspecified) | inactive: 3.28% [at 57.5 µM]
58 | Cc1cc(C)n(CCc2c(-c3ccccc3)ncn2C(C)CCCC(C)(C)O)n1 (stereo unspecified) | inactive: -2.56%
59 | CC(c1cccs1)N(C)Cc1ccc(C(F)(F)F)cc1 (stereo unspecified) | inactive: -0.156% [at 57.5 µM]
60 | CCc1ccc(CN2CCN(c3ccc(C(N)=O)cn3)CC2)nc1 | inactive: 17.8%
61 | O=C(CCNC(=O)c1cnccn1)NC1CCCc2c1[nH]c1ccc(Cl)cc21 (stereo unspecified) | inactive: 12.7%
62 | COc1ccc2cc(C3CN(C(=O)CNC(=O)C(C)C)CCO3)ccc2c1 (stereo unspecified) | inactive: -1.68%
63 | COc1cc(C)cc(C(C(=O)O)N2CCN(c3cnccn3)CC2)c1OC (stereo unspecified) | inactive: -4.3%
64 | O=S(=O)(N[C@H]1CO[C@H]2[C@@H]1OC[C@H]2O)c1ccc(Cl)cc1 | inactive: -1.35% [at 57.5 µM]
65 | CN(C)C[C@@H]1CN(C2CCOCC2)C[C@H]1NC(=O)C1CC=CCC1 (stereo partly specified) | inactive: -0.995%
66 | Cc1[nH]c2ccccc2c1CC(=O)NCc1ccccc1-n1cncn1 | inactive: 7.08%

Filtered by structure, the compounds so far containing a thiophene ring, fused or not
Row | Structure (SMILES) | activity % (negative = inhibition)
10 | COc1ccc2c(c1)OCC(CNC(=O)c1scc3c1OCCO3)C2 (stereo unspecified) | inactive: 0.535%
13 | CCCC(C)N1CC2(CCN(C(=O)c3ccc(C(C)=O)s3)CC2)OC1=O (stereo unspecified) | inactive: 6.11%
40 | CN(CCc1ccccc1)[C@@H]1[C@H](O)[C@H](CO)O[C@@H]1CNS(=O)(=O)c1cccs1 | inactive: 14.1%
59 | CC(c1cccs1)N(C)Cc1ccc(C(F)(F)F)cc1 (stereo unspecified) | inactive: -0.156% [at 57.5 µM]

(list continues)

Row | Structure (SMILES) | activity % (negative = inhibition)
67 | O=C(c1cccc(F)c1F)N1CCCC2(CCNCC2)CC1 | inactive: -2.52%
68 | Cc1cnc(C(=O)NC2CC(c3nnc(CO)n3C3CC3)C2)[nH]1 (stereo unspecified) | inactive: 0.0394%
69 | CN1CCN(c2nc3c(c(=O)[nH]2)CCN(Cc2ccc4[nH]ccc4c2)CC3)CC1 | inactive: 2.32%
70 | COc1ccc(C(=O)N[C@@H]2CCC[C@@H]2C(=O)N2CCSCC2)cc1 | inactive: -0.0788%
71 | Cc1nn(-c2ccccc2)c2c1C(C1CC1)N(C1CCN([S+](=O)([O-])c3ccccc3)C1)C2=O (stereo unspecified) | inactive: 15%
72 | COCCOC1CCN(C(=O)NCc2ccc(C)cc2)CC1 | inactive: -0.0357%
73 | CNC(=O)NCCc1ncc(C)n1C1CCCCCCC1 | inactive: -11.8%
74 | Cc1ccc(OCC(=O)N2CCCC(CN3CCCC3)CC2)cc1 (stereo unspecified) | inactive: 7.6%
75 | CN(C)C(=O)N1CCCC(C(=O)NCCc2nc(-c3ccccn3)no2)C1 (stereo unspecified) | inactive: -3.07%
76 | CS(=O)(=O)N1C[C@H]2CCN(C(=O)Cc3ccccc3Cl)C[C@H]21 | inactive: 1.14%
77 | O=C(CC1C(=O)NCCN1CC(c1ccccc1)c1ccccc1)NCc1ccco1 (stereo unspecified) | inactive: 15.6%
78 | O=C(O)c1ccc(CN2C[C@@H]3OCC(=O)N(c4ccccc4)[C@@H]3C2)cc1 | inactive: -0.309% [at 57.5 µM]
79 | O=C(NCC1CN(C(=O)Cc2cccc(Cl)c2)CC12CN(c1ccccc1)C2)C1CC1 (stereo unspecified) | inactive: -2.23% [at 57.5 µM]
80 | CCC(=O)N1Cc2ccccc2OC2(CCN(C(C)C)CC2)C1 | inactive: -9.64%
81 | CC(C)Cc1noc(CN(C)C(=O)CC2C(=O)NCCN2CC(C)C)n1 (stereo unspecified) | inactive: 0.659%
82 | Cc1cccc(OCCc2noc(C3CCCN3)n2)c1 (stereo unspecified) | inactive: 5.62%
83 | O=C(c1ccco1)N1CCCC1c1nc(C2CCOCC2)no1 (stereo unspecified) | inactive: 4.67%
84 | CC(=O)Nc1ccc(Cl)c(C(=O)N(C)Cc2sccc2C)c1 | inactive: 8.73%
85 | C[C@@H](c1ccccc1)N1C(=O)[C@@H]2CN(C(=O)CC3(CC(=O)O)CCCC3)CCN2C1=O | inactive: 7.3% [at 57.5 µM]
86 | O=C(c1cccnc1)N1C[C@@H]2OCC(=O)N(c3ccccc3)[C@@H]2C1 | inactive: 0.667% [at 57.5 µM]
